Experimental findings from publication PMC11471967 are described below.

The exact form of at least one protein or probe is not confirmed. Where cells or extracts were used, other partners may take part.

For this data set, the system named is RelA (p65), human CTL nuclear extract + NF-kB1 p50, human CTL nuclear extract + PPARδ, human CTL nuclear extract. Nature of the data set: EMSA with Western blot of the gel. The following applies: 5 ug, EMSA: LightShift kit, 5 ug nuclear extract, 4% nondenaturing gel, SYBR Green, TransAM kit per vendor, pH and temperature not stated, protein in an extract, label: none (SYBR Green stain).

“AGTTGAGGGGACTTTCCCAGGC (double strand) [NF-kB consensus oligonucleotide (Rockland K-025)]”: the binding result is given as “binds”.
